Results are given in words; binding and its absence hold for the method and conditions named. Some binding calls cover weakened binding; strength is not graded here.
What was measured:
[1] = target: T1, T. saccharolyticum transcarboxylase 1.3S subunit (or0947), biotinylated, expressed in E. coli strain M2557 (Thermoanaerobacterium saccharolyticum); experiment: batch affinity capture of M2557 lysate on monomeric avidin resin, biotin elution, Western blot
T1 sequence (chain, biotinylated (biotin-containing enzyme; residue not stated)): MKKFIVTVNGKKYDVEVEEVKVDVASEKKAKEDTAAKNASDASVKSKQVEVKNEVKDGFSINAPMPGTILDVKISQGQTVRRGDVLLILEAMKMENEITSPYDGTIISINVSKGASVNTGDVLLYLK

By UniProt entry, the sequences of proteins in these tests, tags left out. Residues count along the entry.
UniProt P02701, residues 25-152: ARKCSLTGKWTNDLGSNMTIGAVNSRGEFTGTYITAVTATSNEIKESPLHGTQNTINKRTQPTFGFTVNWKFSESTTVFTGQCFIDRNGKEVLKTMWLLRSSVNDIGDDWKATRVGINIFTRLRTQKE

[2] = target: T1, T. saccharolyticum transcarboxylase 1.3S subunit (or0947), biotinylated, expressed in E. coli strain M2557 (Thermoanaerobacterium saccharolyticum); experiment: batch capture on streptavidin Dynabeads, elution by boiling, Western blot with streptavidin HRP, N-terminal sequencing of the band

Row | binding [1] | binding [2] | Substance
1 | binds |  | Monomeric avidin resin (Pierce) (from UniProt P02701 25-152)
2 |  | binds | Streptavidin (Streptavidin Dynabeads; streptavidin HRP) (from UniProt P22629 37-163)

From patent US20130323766A1
